Reference: PubChem BioAssay AID624291 (National Center for Advancing Translational Sciences (NCATS), 2012)
Screen size: about 350,000 compounds; about 220 (0.063%) were called active. Inconclusive results, whose numbers are uncertain, are shown with a selection of clear calls. Calls follow the shape of the dose curve; as a rule, active = well fitted activation curve with a large enough effect; inconclusive = small, poorly fitted or top-dose-only effect; inactive = no such curve, though single readings can be large or run the other way. Where the call is inconclusive, the potency comes from a doubtful curve fit.

Test: qHTS for Activators of Integrin-Mediated Alleviation for Muscular Dystrophy; also: nearly all actives have a fitted effect of over 60% in size
Conditions: alpha7betagal myoblasts, beta-gal FDG fluorescence, 48 h; series mostly up to 38.3 µM
Outline: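 Alpha7betagal+/- myoblasts (passage 13) were plated 16-24 hr, then exposed to compounds (1:260 dilution of DMSO stock) for 48 hours at 37C. After MPER lysis, β-galactosidase reporter activity was read as FDG fluorescence (ex 480/em 540) after 30 minutes.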
Potency is read from the fitted curve at half-maximal effect.

Potency, inactive:
CN(C)CCNC(=O)/C(=C/c1ccc(-c2cccc([N+](=O)[O-])c2)o1)NC(=O)c1ccccc1
COc1cccc(Oc2cn[nH]c2-c2ccc(OC)cc2O)c1
O=C(Nc1ccc2c(c1)CN(C(=O)Nc1ccc(F)cc1)CC2)c1ccccn1
CCN(CC)c1ccc2cc(C(C)=O)c(=O)oc2c1
Cc1cccc(NC(=O)C(=O)NCC2CCCN2S(=O)(=O)c2cccs2)c1 (configuration not stated)
COc1ccc2c(-c3ccccc3)cc(=S)[nH]c2c1
CNC(=O)c1ccc(CN(C)C(=O)c2cc(C3CC3)nc3c2cnn3C(C)C)cc1
O=C(NCCC1=CCCCC1)c1cnc2n(c1=O)CCS2
CCOc1ccc2nc(SCC(=O)N3CCCCCC3)c(C#N)cc2c1
Cn1cc(/C=C2\SC(=S)N(NC(=O)c3ccccc3Cl)C2=O)c2ccccc21
Cc1ccc(C(=O)ONc2ccc(N=NC(=O)c3ccccc3O)cc2)cc1
Cc1cccc(C(=O)NC2CC3CCCC(C2)N3S(=O)(=O)c2ccccc2)c1 (configuration not stated)
O=C1CSC(c2ccc(F)cc2)N1c1nc2ccccc2s1 (configuration not stated)
COc1ccc(CCNC(=S)Nc2cccc(C)c2)cc1
O=C(Nc1ccc(Cl)cc1)Nc1nc(-c2sccc2Br)cs1
COc1ccc(-c2sc3ccccc3c2C#Cc2cncn2C)cc1
COc1ccc(NC(=O)COc2ccc(C)c(C)c2)cc1S(=O)(=O)N1CCCCC1

Of the compounds above, four have a halogen.
Potency, inactive:
O=C(Nc1ccc2c(c1)CN(C(=O)Nc1ccc(F)cc1)CC2)c1ccccn1
Cn1cc(/C=C2\SC(=S)N(NC(=O)c3ccccc3Cl)C2=O)c2ccccc21
O=C1CSC(c2ccc(F)cc2)N1c1nc2ccccc2s1 (configuration not stated)
O=C(Nc1ccc(Cl)cc1)Nc1nc(-c2sccc2Br)cs1

Two neighbouring entries already listed:
Potency, inactive:
Cc1cccc(NC(=O)C(=O)NCC2CCCN2S(=O)(=O)c2cccs2)c1 (configuration not stated)
COc1ccc2c(-c3ccccc3)cc(=S)[nH]c2c1

Following part:

Potency, inconclusive:
CCOC(=O)c1sc2nc(C)nc(SCC(=O)N(CC)C3CCS(=O)(=O)C3)c2c1C (configuration not stated) 5.01 µM [activator, single point]
O=C(Nc1ccnn1C1CCN(Cc2ccccc2)CC1)c1ccccc1Cl 3.16 µM [activator, single point]
CCOC(=O)C1=C(C)N(C)C(C)=C(C(=O)OCC)C1c1ccc(Cl)cc1 0.447 µM [activator, full curve, poor fit]
N#Cc1c(C(F)(F)F)cc(-c2cccs2)nc1N1CCCCC1 7.08 µM [activator, partial curve, poor fit]
COc1ccc(/C(C)=N/NC(=O)c2ccncc2)cc1 2.24 µM [activator, partial curve, poor fit]
CC1CCCCC1NC(=O)COC(=O)c1ccc2c(c1)OCCO2 (configuration not stated) 12.6 µM [activator, single point]
CC(C)c1cccc(C(C)C)c1NC(=O)CN(C)C1CCS(=O)(=O)C1 (configuration not stated) 28.2 µM [activator, single point]
COCCN1C(=O)c2cc(C(=O)Nc3ccc(OC)c(OC)c3)ccc2C1Nc1ccc(OC)c(OC)c1 (configuration not stated) 3.16 µM [activator, single point]
COc1ccc(OC)c(N=Cc2c(O)c3ccccc3oc2=O)c1 0.501 µM [activator, full curve, poor fit]
Cc1ccc(C)c(NC(=O)c2cnn(-c3ccccc3)c2C)c1 10 µM [activator, single point]
CN(CCO)S(=O)(=O)c1ccc2c(c1)C(=NN)c1cc(S(=O)(=O)N(C)CCO)ccc1-2 0.316 µM [activator, full curve, poor fit]
COc1ccccc1CC(=O)NCCCc1ccccc1 8.91 µM [activator, partial curve, poor fit]
O=C(CSc1nc(-c2ccc(F)cc2)nc2ccc(F)cc12)Nc1cccc(C(=O)O)c1 2.82 µM [activator, single point]
CCN1CCN(C(=O)Cn2nc(C)c3sc4ccccc4c3c2=O)CC1 3.16 µM [activator, single point]
COc1ccccc1CNC(=O)CC1Sc2ccccc2NC1=O (configuration not stated) 12.6 µM [activator, single point]
O=C(Nc1cnccn1)c1ccc(F)cc1Cl 2.82 µM [activator, partial curve, poor fit]
O=C(c1ccc(CS(=O)Cc2cccc(Cl)c2)o1)N1CCN(C2CCCCC2)CC1 (configuration not stated) 15.8 µM [activator, single point]
CN1CCN(C(=S)NC(=O)c2cccc([N+](=O)[O-])c2)CC1 20 µM [activator, single point]
O=C(COc1ccc(Br)cc1Cl)NC(=S)N1CCc2ccccc21 1.12 µM [activator, partial curve, poor fit]
Cc1ccc(CNC(=O)C2CCN(S(=O)(=O)c3ccc4nc5c(c(C(=O)O)c4c3)CC(C)CC5)CC2)cc1 (configuration not stated) 28.2 µM [activator, single point]
CN(C(=O)COC(=O)Cc1c(Cl)cccc1Cl)C1CCS(=O)(=O)C1 (configuration not stated) 3.55 µM [activator, single point]
CCOc1c(Br)cc(/C=N\NC(=O)c2ccccc2)cc1OC 28.2 µM [activator, single point]
O=C1c2cccc3cccc(c23)C(=O)N1CCCCCc1n[nH]c(=S)o1 11.2 µM [activator, single point]
Oc1cc2ccccc2cc1-c1n[nH]c(=S)n1Cc1ccco1 1 µM [activator, full curve, poor fit]
COc1cccc(CNC(=O)CCCn2ccc3cc(S(=O)(=O)N4CCCC4)ccc32)c1 28.2 µM [activator, single point]
O=C(COC(=O)COc1ccccc1[N+](=O)[O-])NC1CCCCC1 14.1 µM [activator, single point]
CCN(CC)CCN(Cc1cc2cccc(C)c2[nH]c1=O)C(=S)Nc1ccccc1 1.12 µM [activator, partial curve, poor fit]
COc1ccc(NC(=S)NNc2ccc([N+](=O)[O-])cc2S(=O)(=O)Nc2ccc(C)cc2C)cc1 0.355 µM [activator, full curve, poor fit]
CCCC(=O)Nc1nnc(SCC)s1 22.4 µM [activator, single point]
O=C(c1ccc(F)cc1)N1C2CCC1CC(O)(c1ccccc1F)C2 (configuration not stated) 0.562 µM [activator, full curve, poor fit]
Cc1cc(NC(=O)COC(=O)C2CC(=O)N(c3cccc(C)c3C)C2)no1 (configuration not stated) 28.2 µM [activator, single point]
O=C(Cc1ccccc1F)N1CCN(S(=O)(=O)c2ccc(Cl)cc2)CC1 0.447 µM [activator, full curve, poor fit]
Cc1ccc(CN2CCSc3ccc(C(=O)NCc4ccccn4)cc32)cc1 2.82 µM [activator, single point]
O=C(Nc1ccccn1)c1ccc(Cl)s1 5.01 µM [activator, single point]
O=C(CCCCCNC(=O)c1ccccc1)N/N=C/c1ccc(O)cc1O 25.1 µM [activator, partial curve, poor fit]
CC1CCN(S(=O)(=O)c2cc(F)ccc2CN2C(=O)c3cccnc3C2=O)CC1 12.6 µM [activator, single point]
O=C(Nc1ccc(-c2cnco2)cc1)c1ccc(F)cc1F 2.24 µM [activator, partial curve, poor fit]
O=C(c1ccc(N2C(=O)CCC2=O)cc1)N1CCOCC1 28.2 µM [activator, single point]
Cc1ccc(C(=O)O)cc1NS(=O)(=O)c1ccc2c(c1)oc(=O)n2C 5.01 µM [activator, single point]
O=C(NC1=NCCS1)C12CC3CC(C1)CC(C(=O)NC1=NCCS1)(C3)C2 11.2 µM [activator, partial curve, poor fit]
Cc1ccc(S(=O)(=O)N2Cc3ccccc3CC2C(N)=O)cc1 (configuration not stated) 2.82 µM [activator, single point]
COc1cc(C)ccc1OCC(=O)NC1CCCCCC1 5.01 µM [activator, single point]
CN(CC(=O)Nc1cccc2ccccc12)C(=O)c1cccc(S(=O)(=O)N(C)C)c1 28.2 µM [activator, single point]
Cc1ccc(-c2nc(CS(=O)CC(=O)NC3CC3)c(C)o2)cc1 (configuration not stated) 5.01 µM [activator, single point]
O=C(c1ccc(F)cc1)N1CCCC(C(=O)N2CCCCC2)C1 (configuration not stated) 11.2 µM [activator, partial curve, poor fit]
Cc1c(NC(=O)Nc2ccccc2)c(=O)n(-c2ccccc2)n1C 4.47 µM [activator, single point]
COc1ccc(OC2CCN(S(=O)(=O)c3ccccc3)CC2)cc1 5.01 µM [activator, single point]
COc1ccc(-c2nnnn2-c2ccc(F)cc2F)cc1 5.01 µM [activator, single point]
Cc1ccccc1NC(=O)NCCCN1CCN(C)CC1 11.2 µM [activator, partial curve]
Cc1ccc(NS(=O)(=O)c2c(C(=O)N3CCCC3)c(C)n(C)c2C)cc1 5.01 µM [activator, single point]
